These are yes or no findings as the source states them, for the method shown. For part of these data: Binding calls can cover weak binding; strength is not graded here. For part of these data: Binding seen in cells or lysates may run through a third protein. For part of these data: Sequences can lack the tags named with a protein.

We go through two molecules from article doi:10.1101/432989 (bioRxiv, 2018).

The target of experiment [1] is T1, MazE-mt9 with N-terminal 8 x His-tag, co-expressed with MazF-mt9 (Mycobacterium tuberculosis H37Rv) (UniProt P9WJ85).
T1 sequence: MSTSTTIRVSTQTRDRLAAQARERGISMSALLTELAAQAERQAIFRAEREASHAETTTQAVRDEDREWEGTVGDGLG
The experiment can be described thus: pull-down.

The target in experiment [2] is T2, MazE-mt1 with N-terminal 8 x His-tag, co-expressed with MazF-mt9 (Mycobacterium tuberculosis H37Rv) (UniProt P0CL61).
T2 sequence: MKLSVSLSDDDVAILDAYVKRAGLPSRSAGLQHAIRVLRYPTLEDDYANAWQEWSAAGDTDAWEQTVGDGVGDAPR
The experiment can be described thus: pull-down.

The target of experiment [3] is MazF-mt9 (Mycobacterium tuberculosis). The experiment can be described thus: crystal structure.

As to “MazF-mt9 co-expressed with a MazE from pETDuet1 (Mycobacterium tuberculosis) (enzyme)”, the binding entry was “no binding” in experiment [1] and “binds” in experiment [2].

B1: MazE-mt9 (natural protein)
chain: T1 sequence
With B1, the binding entry in experiment [3] is reported as “binds”.
